# Some of these results come from one statement about several compounds together.
# Sequences of proteins named here, by UniProt entry; tags and fusion partners are left off. A change or cut given only in a name is not applied to a line headed by its entry.
# UniProt Q92769, whole entry, species assumed: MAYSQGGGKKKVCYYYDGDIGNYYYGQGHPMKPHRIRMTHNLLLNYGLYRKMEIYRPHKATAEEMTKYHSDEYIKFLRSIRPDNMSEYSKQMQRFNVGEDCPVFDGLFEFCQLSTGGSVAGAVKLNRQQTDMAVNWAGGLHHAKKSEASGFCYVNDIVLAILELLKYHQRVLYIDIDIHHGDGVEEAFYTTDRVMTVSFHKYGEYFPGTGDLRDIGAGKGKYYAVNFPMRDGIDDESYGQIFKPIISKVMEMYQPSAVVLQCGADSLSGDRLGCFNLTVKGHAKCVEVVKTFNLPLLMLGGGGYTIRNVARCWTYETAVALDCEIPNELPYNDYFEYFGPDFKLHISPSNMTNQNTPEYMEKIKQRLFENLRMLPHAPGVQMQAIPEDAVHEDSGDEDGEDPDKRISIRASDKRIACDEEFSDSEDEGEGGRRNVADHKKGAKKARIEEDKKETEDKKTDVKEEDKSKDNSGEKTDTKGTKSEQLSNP
# UniProt P56524, whole entry, species assumed: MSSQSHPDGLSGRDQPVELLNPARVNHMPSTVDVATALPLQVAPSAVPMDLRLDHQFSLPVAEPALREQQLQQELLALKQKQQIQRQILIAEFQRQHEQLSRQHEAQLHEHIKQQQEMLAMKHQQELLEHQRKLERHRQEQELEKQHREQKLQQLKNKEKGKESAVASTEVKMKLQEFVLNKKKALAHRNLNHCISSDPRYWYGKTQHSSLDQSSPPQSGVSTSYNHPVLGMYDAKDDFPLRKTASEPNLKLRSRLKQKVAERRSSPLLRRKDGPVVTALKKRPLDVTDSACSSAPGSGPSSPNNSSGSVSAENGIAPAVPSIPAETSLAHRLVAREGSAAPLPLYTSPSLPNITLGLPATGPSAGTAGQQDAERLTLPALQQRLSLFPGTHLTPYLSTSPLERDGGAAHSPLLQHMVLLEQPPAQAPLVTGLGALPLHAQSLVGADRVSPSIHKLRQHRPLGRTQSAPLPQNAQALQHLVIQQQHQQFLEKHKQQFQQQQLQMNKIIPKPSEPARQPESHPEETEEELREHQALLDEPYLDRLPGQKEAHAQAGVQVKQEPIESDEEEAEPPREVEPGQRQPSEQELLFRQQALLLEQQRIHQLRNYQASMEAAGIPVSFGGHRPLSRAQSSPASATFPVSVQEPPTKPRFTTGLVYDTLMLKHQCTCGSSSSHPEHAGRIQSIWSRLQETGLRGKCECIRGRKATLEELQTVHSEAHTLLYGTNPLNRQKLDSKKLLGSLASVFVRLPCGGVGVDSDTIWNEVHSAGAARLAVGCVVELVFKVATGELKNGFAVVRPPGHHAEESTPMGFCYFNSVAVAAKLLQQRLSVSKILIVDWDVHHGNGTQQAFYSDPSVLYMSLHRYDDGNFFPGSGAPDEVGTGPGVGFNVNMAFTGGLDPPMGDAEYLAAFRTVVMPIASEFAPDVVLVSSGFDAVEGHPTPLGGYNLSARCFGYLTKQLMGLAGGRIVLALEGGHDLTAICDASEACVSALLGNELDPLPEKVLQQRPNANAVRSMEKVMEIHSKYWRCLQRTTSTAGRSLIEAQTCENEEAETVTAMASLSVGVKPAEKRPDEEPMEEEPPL
# UniProt Q9UKV0, whole entry, species assumed: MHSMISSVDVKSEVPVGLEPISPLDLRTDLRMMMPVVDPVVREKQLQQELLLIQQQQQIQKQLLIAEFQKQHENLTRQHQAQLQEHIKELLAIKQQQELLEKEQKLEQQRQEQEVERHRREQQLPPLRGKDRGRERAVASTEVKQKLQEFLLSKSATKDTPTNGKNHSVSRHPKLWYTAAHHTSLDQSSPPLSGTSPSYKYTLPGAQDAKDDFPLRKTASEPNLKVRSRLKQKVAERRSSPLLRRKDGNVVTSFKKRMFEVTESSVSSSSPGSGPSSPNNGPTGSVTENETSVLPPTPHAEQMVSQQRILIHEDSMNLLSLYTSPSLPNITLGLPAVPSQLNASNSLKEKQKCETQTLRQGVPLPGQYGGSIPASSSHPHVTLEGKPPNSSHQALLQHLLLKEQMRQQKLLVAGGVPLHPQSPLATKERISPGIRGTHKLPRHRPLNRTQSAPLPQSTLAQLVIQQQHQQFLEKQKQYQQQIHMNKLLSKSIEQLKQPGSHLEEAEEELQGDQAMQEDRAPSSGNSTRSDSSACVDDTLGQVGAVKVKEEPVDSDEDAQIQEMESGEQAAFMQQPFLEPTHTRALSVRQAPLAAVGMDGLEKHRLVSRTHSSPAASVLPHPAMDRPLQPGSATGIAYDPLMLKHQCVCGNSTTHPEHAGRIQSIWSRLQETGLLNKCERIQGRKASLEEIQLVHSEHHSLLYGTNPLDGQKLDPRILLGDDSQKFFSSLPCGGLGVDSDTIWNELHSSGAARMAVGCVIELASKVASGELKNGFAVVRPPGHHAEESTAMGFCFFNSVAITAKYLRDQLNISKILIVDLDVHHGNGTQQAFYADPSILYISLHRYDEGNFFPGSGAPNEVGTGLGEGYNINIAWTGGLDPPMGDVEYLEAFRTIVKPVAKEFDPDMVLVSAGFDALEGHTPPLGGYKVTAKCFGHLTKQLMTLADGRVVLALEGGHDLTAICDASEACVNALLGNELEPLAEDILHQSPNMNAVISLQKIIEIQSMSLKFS
# UniProt Q9UQL6, whole entry, species assumed: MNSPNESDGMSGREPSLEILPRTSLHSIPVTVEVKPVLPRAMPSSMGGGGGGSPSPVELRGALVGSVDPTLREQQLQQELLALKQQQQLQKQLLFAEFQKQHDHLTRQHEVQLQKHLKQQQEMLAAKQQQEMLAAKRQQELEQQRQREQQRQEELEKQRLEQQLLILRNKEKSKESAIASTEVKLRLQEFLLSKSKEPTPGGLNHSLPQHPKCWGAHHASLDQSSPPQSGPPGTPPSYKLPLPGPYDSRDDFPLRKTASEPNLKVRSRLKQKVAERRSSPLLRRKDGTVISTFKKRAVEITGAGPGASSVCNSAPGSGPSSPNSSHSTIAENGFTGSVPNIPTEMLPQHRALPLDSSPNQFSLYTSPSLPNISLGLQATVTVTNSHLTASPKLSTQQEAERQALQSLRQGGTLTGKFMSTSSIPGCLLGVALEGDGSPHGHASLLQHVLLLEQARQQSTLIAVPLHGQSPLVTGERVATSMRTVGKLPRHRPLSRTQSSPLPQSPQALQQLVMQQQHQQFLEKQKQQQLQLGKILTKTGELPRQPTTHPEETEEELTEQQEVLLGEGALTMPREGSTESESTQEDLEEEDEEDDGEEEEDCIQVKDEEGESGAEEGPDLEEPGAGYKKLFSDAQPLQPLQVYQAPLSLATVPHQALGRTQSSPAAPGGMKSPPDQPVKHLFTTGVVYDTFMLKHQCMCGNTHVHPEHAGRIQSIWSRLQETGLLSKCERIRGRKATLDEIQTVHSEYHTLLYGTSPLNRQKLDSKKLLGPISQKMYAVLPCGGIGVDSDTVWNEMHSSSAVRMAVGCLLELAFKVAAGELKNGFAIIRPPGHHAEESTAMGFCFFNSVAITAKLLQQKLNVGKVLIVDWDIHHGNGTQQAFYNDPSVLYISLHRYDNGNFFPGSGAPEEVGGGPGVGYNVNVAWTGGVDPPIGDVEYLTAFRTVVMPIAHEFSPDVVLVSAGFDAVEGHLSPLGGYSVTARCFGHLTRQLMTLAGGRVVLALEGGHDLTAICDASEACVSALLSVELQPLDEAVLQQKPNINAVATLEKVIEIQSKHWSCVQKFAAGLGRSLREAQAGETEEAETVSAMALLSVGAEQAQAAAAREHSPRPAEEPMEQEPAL
# UniProt P42338: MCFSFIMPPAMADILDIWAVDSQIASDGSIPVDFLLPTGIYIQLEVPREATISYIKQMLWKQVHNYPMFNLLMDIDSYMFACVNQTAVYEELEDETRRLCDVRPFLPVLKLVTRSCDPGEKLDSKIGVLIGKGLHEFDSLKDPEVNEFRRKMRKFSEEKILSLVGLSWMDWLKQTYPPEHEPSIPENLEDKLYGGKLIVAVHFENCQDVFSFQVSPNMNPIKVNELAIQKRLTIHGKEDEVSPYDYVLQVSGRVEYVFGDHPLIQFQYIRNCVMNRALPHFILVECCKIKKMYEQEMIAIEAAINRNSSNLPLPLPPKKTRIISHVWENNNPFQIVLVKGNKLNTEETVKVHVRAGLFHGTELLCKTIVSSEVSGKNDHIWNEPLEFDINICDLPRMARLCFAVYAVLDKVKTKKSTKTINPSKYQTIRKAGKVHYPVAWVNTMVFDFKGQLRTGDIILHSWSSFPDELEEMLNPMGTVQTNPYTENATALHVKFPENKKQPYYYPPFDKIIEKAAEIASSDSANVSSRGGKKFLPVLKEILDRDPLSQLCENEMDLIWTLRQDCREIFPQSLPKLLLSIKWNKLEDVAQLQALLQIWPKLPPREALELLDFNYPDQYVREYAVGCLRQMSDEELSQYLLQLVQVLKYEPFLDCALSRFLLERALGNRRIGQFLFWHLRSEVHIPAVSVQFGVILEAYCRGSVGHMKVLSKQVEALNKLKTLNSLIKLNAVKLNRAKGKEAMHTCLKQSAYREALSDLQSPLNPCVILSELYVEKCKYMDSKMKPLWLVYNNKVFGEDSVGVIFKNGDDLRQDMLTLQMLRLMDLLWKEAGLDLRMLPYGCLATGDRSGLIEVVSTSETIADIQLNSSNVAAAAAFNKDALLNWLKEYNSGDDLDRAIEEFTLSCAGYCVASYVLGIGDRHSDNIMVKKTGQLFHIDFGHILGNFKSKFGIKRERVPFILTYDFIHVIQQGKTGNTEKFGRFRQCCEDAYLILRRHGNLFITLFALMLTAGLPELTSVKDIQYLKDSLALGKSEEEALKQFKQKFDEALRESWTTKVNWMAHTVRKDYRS
# Columns and labels:
# [1] = molecular target: HDAC2 (Homo sapiens, UniProt Q92769); experiment: HDAC Fluorescent Activity Assay; assay type: biochemical
# [2] = system: Non-Small Cell Lung Cancer Cell Line A549/ATCC; details: single dose, 10 uM compound concentration
# [3] = system: Melanoma Cell Line MALME-3M; details: single dose, 10 uM compound concentration
# [4] = system: Ovarian Cell Line SK-OV-3; details: single dose, 10 uM compound concentration
# [5] = system: Ovarian Cell Line OVCAR-5; details: single dose, 10 uM compound concentration
# [6] = system: Prostate Cancer Cell Line DU-145; details: single dose, 10 uM compound concentration
# [7] = molecular target: HDAC4 (Homo sapiens, UniProt P56524); experiment: HDAC Fluorescent Activity Assay; assay type: biochemical
# [8] = system: Melanoma Cell Line SK-MEL-2; details: single dose, 10 uM compound concentration
# [9] = system: CNS Cancer Cell Line SF-295; details: single dose, 10 uM compound concentration
# [10] = system: Breast Cancer Cell Line MDA-MB-231/ATCC; details: single dose, 10 uM compound concentration
# [11] = molecular target: HDAC9 (Homo sapiens, UniProt Q9UKV0); experiment: HDAC Fluorescent Activity Assay; assay type: biochemical
# [12] = system: Melanoma Cell Line SK-MEL-5; details: single dose, 10 uM compound concentration
# [13] = system: CNS Cancer Cell Line SF-539; details: single dose, 10 uM compound concentration
# [14] = system: Renal Cancer Cell Line A498; details: single dose, 10 uM compound concentration
# [15] = system: Non-Small Cell Lung Cancer Cell Line HOP-62; details: single dose, 10 uM compound concentration
# [16] = system: CNS Cancer Cell Line SF-268; details: single dose, 10 uM compound concentration
# [17] = system: Renal Cancer Cell Line ACHN; details: single dose, 10 uM compound concentration
# [18] = molecular target: HDAC5 (Homo sapiens, UniProt Q9UQL6); experiment: HDAC Fluorescent Activity Assay; assay type: biochemical
# [19] = system: Renal Cancer Cell Line TK-10; details: single dose, 10 uM compound concentration
# [20] = system: Ovarian Cell Line OVCAR-4; details: single dose, 10 uM compound concentration
# [21] = molecular target: PI3Kβ (Homo sapiens, UniProt P42338); experiment: PI3Kβ kinase assay (HTRF); assay type: biochemical
# Experimental: The PIP3 product is detected by displacement of biotin-PIP3 from an energy transfer complex consisting of Europium labeled anti-GST monoclonal antibody, a GST-tagged pleckstrin homology (PH) domain, biotinylated PIP3 and Streptavidin-Allophycocyanin (APC). […] The PIP3 product formed by PI 3-Kinase(h) activity displaces biotin-PIP3 from the complex resulting in a loss of energy transfer, and thus, a decrease in signal.
# First, the kinase reaction with PIP2 substrate is carried out in the presence of ATP, and the reaction is quenched with stop Solution, and then, finally detect by adding Detection Mixture followed by incubation.
# HEPES 50 mM (pH7.0), NaN3 0.02%, BSA 0.01%, Orthovanadate 0.1 mM, 1% DMSO.
# Detection buffer: HEPES 10 mM (pH7.0), BSA 0.02%, KF 0.16 M, EDTA 4 mM.
# 10 μM PIP2 substrate (PI(4,5)P2)
# 10 μM ATP under standard conditions
# 1. Prepare substrate in freshly prepared Reaction Buffer.
# 2. Deliver kinase into the substrate solution and gently mix.
# 3. Deliver compounds in 100% DMSO into the kinase reaction mixture by Acoustic technology (Echo550; nanoliter range), incubate for 10 min at room temperature.
# 4. Deliver ATP into the reaction mixture to initiate the reaction.
# 5. Incubate for 30 min at 30° C.
# 6. Quench the reaction with Stop Solution.
# 7. Add Detection Mixture, and incubate for overnight.
# The emission ratio is converted into μM PIP3 production based on PIP3 standard curves.
# The nonlinear regression to obtain the standard curve and IC50 values are performed using Graphpad Prism software.
# [22] = molecular target: T1, HDAC7 (Homo sapiens, UniProt Q8WUI4); experiment: HDAC Fluorescent Activity Assay; assay type: biochemical
# T1 sequence (Q8WUI4 1-952): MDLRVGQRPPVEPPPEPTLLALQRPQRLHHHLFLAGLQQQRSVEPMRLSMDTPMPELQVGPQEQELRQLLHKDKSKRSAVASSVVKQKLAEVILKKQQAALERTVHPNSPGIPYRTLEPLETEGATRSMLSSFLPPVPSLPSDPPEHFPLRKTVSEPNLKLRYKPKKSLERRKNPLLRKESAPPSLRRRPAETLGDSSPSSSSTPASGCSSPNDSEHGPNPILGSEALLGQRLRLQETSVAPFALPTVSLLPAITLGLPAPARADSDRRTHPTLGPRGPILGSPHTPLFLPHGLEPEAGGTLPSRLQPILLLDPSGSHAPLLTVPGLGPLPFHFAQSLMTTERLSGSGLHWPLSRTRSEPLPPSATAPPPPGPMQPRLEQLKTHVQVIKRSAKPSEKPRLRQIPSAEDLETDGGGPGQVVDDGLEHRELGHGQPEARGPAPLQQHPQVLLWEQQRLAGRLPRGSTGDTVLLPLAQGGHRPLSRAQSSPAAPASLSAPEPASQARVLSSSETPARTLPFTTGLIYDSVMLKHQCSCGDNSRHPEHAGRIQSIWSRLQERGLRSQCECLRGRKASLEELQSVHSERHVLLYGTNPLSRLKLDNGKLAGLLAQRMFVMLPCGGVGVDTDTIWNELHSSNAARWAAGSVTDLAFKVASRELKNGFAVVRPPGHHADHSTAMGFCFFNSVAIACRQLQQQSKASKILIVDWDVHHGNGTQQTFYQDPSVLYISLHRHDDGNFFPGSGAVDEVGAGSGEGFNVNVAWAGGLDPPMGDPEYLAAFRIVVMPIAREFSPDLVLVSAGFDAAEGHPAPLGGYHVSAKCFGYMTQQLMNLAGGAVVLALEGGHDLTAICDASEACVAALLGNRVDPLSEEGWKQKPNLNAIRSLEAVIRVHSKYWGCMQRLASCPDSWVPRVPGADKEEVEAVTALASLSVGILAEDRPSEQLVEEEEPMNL
# [23] = system: Non-Small Cell Lung Cancer Cell Line EKVX; details: single dose, 10 uM compound concentration
structure (smiles),measurement,setting,value
"Cc1nc2cccc(NCc3ccc(C(=O)NO)cc3)c2c(=O)n1-c1ccccc1 [Compound LX, N-hydroxy-4-(((2-methyl-4-oxo-3-phenyl-3,4-dihydroquinazolin-5-yl)amino)methyl)benzamide]",HDAC6 Selectivity Over HDAC2,[1],> 10 fold
same,inhibition of proliferation,[2],> 50%
same,inhibition of proliferation,[3],> 50%
same,inhibition of proliferation,[4],> 50%
same,inhibition of proliferation,[5],> 50%
same,inhibition of proliferation,[6],> 50%
same,HDAC6 Selectivity Over HDAC4,[7],> 10 fold
same,inhibition of proliferation,[8],25%-50%
same,inhibition of proliferation,[9],> 50%
same,inhibition of proliferation,[10],> 50%
same,HDAC6 Selectivity Over HDAC9,[11],> 10 fold
same,inhibition of proliferation,[12],> 50%
same,inhibition of proliferation,[13],> 50%
same,inhibition of proliferation,[14],> 50%
same,inhibition of proliferation,[15],> 50%
same,inhibition of proliferation,[16],> 50%
same,inhibition of proliferation,[17],> 50%
same,HDAC6 Selectivity Over HDAC5,[18],> 10 fold
same,inhibition of proliferation,[19],> 50%
same,inhibition of proliferation,[20],25%-50%
same,PI3Kδ Selectivity Over PI3Kβ,[21],> 10 fold
same,HDAC6 Selectivity Over HDAC7,[22],> 10 fold
same,inhibition of proliferation,[23],25%-50%

# Reference: patent publication US20200165257A1, “INHIBITORS OF PHOSPHOINOSITIDE 3-KINASE AND HISTONE DEACETYLASE FOR TREATMENT OF CANCER” (THE UNITED STATES OF AMERICA, AS REPRESENTED BY THE …, priority 2017, published 2020)
